Data: PMC10123114
Read-outs that look alike come from different tables or passages of the source. Results are given in words; binding and its absence hold for the method and conditions named. Binding seen in cells or lysates may run through a third protein. These calls come from enrichment with a bait or labelling near it, and not all partners need be listed. Where a sequence is shown, tags or fusion partners need not be part of it.

By UniProt entry, the sequences of proteins in these tests, tags left out.
UniProt P52294: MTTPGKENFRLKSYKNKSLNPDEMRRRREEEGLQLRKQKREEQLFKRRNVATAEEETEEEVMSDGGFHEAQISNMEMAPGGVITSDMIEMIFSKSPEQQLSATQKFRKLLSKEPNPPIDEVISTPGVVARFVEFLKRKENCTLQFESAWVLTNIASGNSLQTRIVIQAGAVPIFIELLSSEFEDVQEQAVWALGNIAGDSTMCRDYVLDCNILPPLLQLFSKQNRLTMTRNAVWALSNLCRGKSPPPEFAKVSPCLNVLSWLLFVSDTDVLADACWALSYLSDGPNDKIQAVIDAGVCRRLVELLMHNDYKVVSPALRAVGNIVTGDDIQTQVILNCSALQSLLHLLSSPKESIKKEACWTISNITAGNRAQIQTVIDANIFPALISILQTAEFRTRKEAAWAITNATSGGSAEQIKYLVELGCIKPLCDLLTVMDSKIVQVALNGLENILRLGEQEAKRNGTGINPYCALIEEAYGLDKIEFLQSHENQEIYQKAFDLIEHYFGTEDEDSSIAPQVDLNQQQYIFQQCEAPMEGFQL
UniProt Q9UHV9: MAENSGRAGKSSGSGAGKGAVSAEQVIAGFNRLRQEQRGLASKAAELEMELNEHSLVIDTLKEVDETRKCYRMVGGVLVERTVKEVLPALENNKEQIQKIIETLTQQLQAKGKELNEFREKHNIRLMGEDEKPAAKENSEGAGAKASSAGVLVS
UniProt O15212: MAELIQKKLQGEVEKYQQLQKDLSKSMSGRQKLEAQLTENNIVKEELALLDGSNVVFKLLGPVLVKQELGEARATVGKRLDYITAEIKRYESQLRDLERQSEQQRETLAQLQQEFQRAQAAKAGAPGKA
UniProt Q9BVM2: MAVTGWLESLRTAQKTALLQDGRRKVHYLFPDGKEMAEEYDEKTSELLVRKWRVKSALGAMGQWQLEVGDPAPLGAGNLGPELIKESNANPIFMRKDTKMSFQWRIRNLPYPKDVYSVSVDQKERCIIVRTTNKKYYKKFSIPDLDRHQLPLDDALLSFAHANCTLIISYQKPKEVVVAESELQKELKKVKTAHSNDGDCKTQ
UniProt Q9NUG6: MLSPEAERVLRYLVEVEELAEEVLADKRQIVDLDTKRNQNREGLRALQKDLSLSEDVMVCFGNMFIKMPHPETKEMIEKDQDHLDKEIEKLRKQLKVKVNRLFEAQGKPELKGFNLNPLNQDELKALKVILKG

Assays:
Assay in all cases: affinity purification with mass spectrometry; IP-SILAC: GFP-Trap beads on whole-cell extracts of SILAC-labelled HEK293 Flp-In T-REx cells, GFP-tagged bait induced 3 h with doxycycline; HNT buffer (20 mM HEPES pH 7.4, 150 mM NaCl, 0.5% Triton X-100), 4 °C; control: parental cells without the GFP fusion
[1] = target: T1, GFP-NHP2 (UniProt Q9NX24)
T1 sequence: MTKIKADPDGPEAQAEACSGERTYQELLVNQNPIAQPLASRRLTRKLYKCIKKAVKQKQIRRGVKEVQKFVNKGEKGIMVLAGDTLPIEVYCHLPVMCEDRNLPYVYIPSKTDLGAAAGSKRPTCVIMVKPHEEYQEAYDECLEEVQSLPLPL

[2] = target: T2, GFP-SHQ1 (UniProt Q6PI26)
T2 sequence: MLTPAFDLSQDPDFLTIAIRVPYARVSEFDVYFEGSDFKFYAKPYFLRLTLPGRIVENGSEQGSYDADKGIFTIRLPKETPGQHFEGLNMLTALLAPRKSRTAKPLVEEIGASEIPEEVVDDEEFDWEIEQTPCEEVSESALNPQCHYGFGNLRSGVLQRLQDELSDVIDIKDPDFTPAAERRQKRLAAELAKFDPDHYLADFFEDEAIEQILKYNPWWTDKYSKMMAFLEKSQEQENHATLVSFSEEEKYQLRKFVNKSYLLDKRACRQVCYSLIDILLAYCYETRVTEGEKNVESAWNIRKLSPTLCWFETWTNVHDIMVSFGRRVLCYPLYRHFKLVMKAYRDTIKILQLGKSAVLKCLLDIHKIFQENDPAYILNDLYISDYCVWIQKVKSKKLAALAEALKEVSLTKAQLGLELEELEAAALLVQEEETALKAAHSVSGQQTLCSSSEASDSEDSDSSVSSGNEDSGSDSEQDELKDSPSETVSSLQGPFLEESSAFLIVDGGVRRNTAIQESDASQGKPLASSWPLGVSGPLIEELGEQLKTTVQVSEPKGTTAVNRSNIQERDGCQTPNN

[3] = target: T1, GFP-NHP2; remark: listed apart in the source
[4] = target: T2, GFP-SHQ1; remark: listed apart in the source
[5] = target: T3, GFP-NAF1 (UniProt Q96HR8)
T3 sequence: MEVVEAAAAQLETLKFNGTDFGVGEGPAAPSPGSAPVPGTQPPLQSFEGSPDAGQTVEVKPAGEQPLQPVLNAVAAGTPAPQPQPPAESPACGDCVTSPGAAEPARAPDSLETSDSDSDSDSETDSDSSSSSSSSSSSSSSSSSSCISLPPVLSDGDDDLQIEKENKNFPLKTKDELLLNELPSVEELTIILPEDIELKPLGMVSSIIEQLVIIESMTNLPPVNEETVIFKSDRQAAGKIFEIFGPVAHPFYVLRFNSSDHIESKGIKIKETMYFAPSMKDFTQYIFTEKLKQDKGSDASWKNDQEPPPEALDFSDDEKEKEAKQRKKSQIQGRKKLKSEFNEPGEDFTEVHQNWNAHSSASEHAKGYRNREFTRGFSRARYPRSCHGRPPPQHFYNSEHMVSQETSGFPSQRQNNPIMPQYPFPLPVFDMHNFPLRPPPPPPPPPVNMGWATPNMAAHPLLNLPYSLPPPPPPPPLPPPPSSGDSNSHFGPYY

IMA5 (importin α5) (from UniProt P52294 1-538)
binding [1]: binds

PFDN2 (from UniProt Q9UHV9 1-154)
binding [2]: binds

PFDN6 (from UniProt O15212 1-129)
binding [2]: binds

DPCD (from UniProt Q9BVM2 1-203)
binding [2]: binds

PDRG1 (from UniProt Q9NUG6 1-133)
binding [2]: binds

B1: NAF1 (endogenous) (protein, UniProt Q96HR8 1-494)
chain: MEVVEAAAAQLETLKFNGTDFGVGEGPAAPSPGSAPVPGTQPPLQSFEGSPDAGQTVEVKPAGEQPLQPVLNAVAAGTPAPQPQPPAESPACGDCVTSPGAAEPARAPDSLETSDSDSDSDSETDSDSSSSSSSSSSSSSSSSSSCISLPPVLSDGDDDLQIEKENKNFPLKTKDELLLNELPSVEELTIILPEDIELKPLGMVSSIIEQLVIIESMTNLPPVNEETVIFKSDRQAAGKIFEIFGPVAHPFYVLRFNSSDHIESKGIKIKETMYFAPSMKDFTQYIFTEKLKQDKGSDASWKNDQEPPPEALDFSDDEKEKEAKQRKKSQIQGRKKLKSEFNEPGEDFTEVHQNWNAHSSASEHAKGYRNREFTRGFSRARYPRSCHGRPPPQHFYNSEHMVSQETSGFPSQRQNNPIMPQYPFPLPVFDMHNFPLRPPPPPPPPPVNMGWATPNMAAHPLLNLPYSLPPPPPPPPLPPPPSSGDSNSHFGPYY
binding [3]: binds
binding [4]: binds

B2: NHP2 (endogenous) (protein, UniProt Q9NX24 1-153)
chain: MTKIKADPDGPEAQAEACSGERTYQELLVNQNPIAQPLASRRLTRKLYKCIKKAVKQKQIRRGVKEVQKFVNKGEKGIMVLAGDTLPIEVYCHLPVMCEDRNLPYVYIPSKTDLGAAAGSKRPTCVIMVKPHEEYQEAYDECLEEVQSLPLPL
binding [5]: binds
binding [4]: binds

B3: NOP10 (protein, UniProt Q9NPE3 1-64)
chain: MFLQYYLNEQGDRVYTLKKFDPMGQQTCSAHPARFSPDDKYSRHRITIKKRFKVLMTQQPRPVL
binding [5]: binds
binding [4]: binds

B4: dyskerin (protein, UniProt O60832 1-514)
chain: MADAEVIILPKKHKKKKERKSLPEEDVAEIQHAEEFLIKPESKVAKLDTSQWPLLLKNFDKLNVRTTHYTPLACGSNPLKREIGDYIRTGFINLDKPSNPSSHEVVAWIRRILRVEKTGHSGTLDPKVTGCLIVCIERATRLVKSQQSAGKEYVGIVRLHNAIEGGTQLSRALETLTGALFQRPPLIAAVKRQLRVRTIYESKMIEYDPERRLGIFWVSCEAGTYIRTLCVHLGLLLGVGGQMQELRRVRSGVMSEKDHMVTMHDVLDAQWLYDNHKDESYLRRVVYPLEKLLTSHKRLVMKDSAVNAICYGAKIMLPGVLRYEDGIEVNQEIVVITTKGEAICMAIALMTTAVISTCDHGIVAKIKRVIMERDTYPRKWGLGPKASQKKLMIKQGLLDKHGKPTDSTPATWKQEYVDYSESAKKEVVAEVVKAPQVVAEAAKTAKRKRESESESDETPPAAPQLIKKEKKKSKKDKKAKAGLESGAEPGDGDSDTTKKKKKKKKAKEVELVSE
binding [3]: binds
binding [5]: binds
binding [4]: binds

B5: SHQ1 (endogenous) (protein, UniProt Q6PI26 1-577)
chain: MLTPAFDLSQDPDFLTIAIRVPYARVSEFDVYFEGSDFKFYAKPYFLRLTLPGRIVENGSEQGSYDADKGIFTIRLPKETPGQHFEGLNMLTALLAPRKSRTAKPLVEEIGASEIPEEVVDDEEFDWEIEQTPCEEVSESALNPQCHYGFGNLRSGVLQRLQDELSDVIDIKDPDFTPAAERRQKRLAAELAKFDPDHYLADFFEDEAIEQILKYNPWWTDKYSKMMAFLEKSQEQENHATLVSFSEEEKYQLRKFVNKSYLLDKRACRQVCYSLIDILLAYCYETRVTEGEKNVESAWNIRKLSPTLCWFETWTNVHDIMVSFGRRVLCYPLYRHFKLVMKAYRDTIKILQLGKSAVLKCLLDIHKIFQENDPAYILNDLYISDYCVWIQKVKSKKLAALAEALKEVSLTKAQLGLELEELEAAALLVQEEETALKAAHSVSGQQTLCSSSEASDSEDSDSSVSSGNEDSGSDSEQDELKDSPSETVSSLQGPFLEESSAFLIVDGGVRRNTAIQESDASQGKPLASSWPLGVSGPLIEELGEQLKTTVQVSEPKGTTAVNRSNIQERDGCQTPNN
binding [3]: binds
binding [5]: binds
